The source of these data is patent US20190127473A1 (Dana-Farber, published 2019).

Sequences of proteins named here, by UniProt entry; tags and fusion partners are left off. A change or cut given only in a name is not applied to a line headed by its entry.
UniProt P09382: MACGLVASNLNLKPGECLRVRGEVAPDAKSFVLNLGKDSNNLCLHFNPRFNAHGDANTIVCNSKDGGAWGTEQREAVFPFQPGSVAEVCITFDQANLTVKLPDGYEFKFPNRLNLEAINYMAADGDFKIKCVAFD

No constants are given. Whether binding was seen depends on the method and setting. Some results given as binding are weak or reduced against the parent protein; the word gives no strength.

Experiment [1] addresses GST-F7 (GST-tagged human Gal1 construct) (human) (UniProt P09382). Nature of the experiment: epitope mapping with GST-tagged human Gal1 fragments.
In experiment [2] the target is HIS-F7 (6x HIS-tagged human Gal1 construct) (human) (UniProt P09382). Nature of the experiment: Western blot on HIS-tagged human Gal1 constructs. Background: Immunoblotting shows a protein as a band on a membrane.

B1: 8B5 anti-Gal1 monoclonal antibody (antibody, V domains shown)
VH: EVQLQQSVAEFVRPGASVRLSCTASGFNIKNTYIHWVRQRPEQGLEWIGKIDPANGNTKYVPEFQGKATMTADTSSNTVYLHLSSLTSEDTAIYYCVDGYYGWYFAVWGTGTTVTVSS
VL: QAVVTQESALTTSPGETVTLTCRSSTGAVTTSNYANWVQEKPDHLFTGLIGATNNRAPGVPARFSGSLIGDKAVLTITGAQTEDEAIYFCALWYRNHFIFGSGTKVTVL
As to B1, in experiment [1], the binding entry is reported as “binds”.

B2: 8G3 anti-Gal1 monoclonal antibody (antibody, V domains shown)
VH: B1 VH
VL: B1 VL
Consider B2, for which the binding result in experiment [1] was “binds”.

B3: 8F4 anti-Gal1 monoclonal antibody (antibody, V domains shown)
VH: B1 VH
VL: B1 VL
notes: Hybridoma monoclonal antibody; The light chain is lambda; Hybridoma 8F4.F8.G7 is deposited as ATCC PTA-10535; also called 8F4 mAb; 8F4.F8.G7
B3: the binding entry in experiment [2] and in experiment [1] was “binds” each time.
